At least one structure is not confirmed: it was looked up by name or label, or the drawing left a doubt.
Tested on: p62
Assay: p62 Western blot in T6PNE cells
Assay type: cell-based, human
Conditions: NCT 10 μM, RA 10 μM, fenretinide
Method: Whole-cell extracts were prepared by incubation in RIPA buffer (Invitrogen) containing protease inhibitors (Calbiochem, San Diego, Calif.). Protein ([…]) was separated on 12% or 16% Tri-Glycine gels (Invitrogen) and transferred to Immobilon P membrane (0.2 μm pore, Millipore). After 1 h in phosphate-buffered saline-Tween (PBST) with 3% milk, membrane was incubated with antibodies to HNF4α (mouse, Novus, 1:1000), LC3B (rabbit, Novus, 1:500), p62 (SQSTM1, mouse, Santa Cruz, 1:1000) or β-actin (mouse, Santa Cruz, 1:2000), followed by secondary antibody conjugated to horseradish peroxidase (1:5000, Jackson Immune).

Compound: CC1=C(/C=C/C(C)=C/C=C/C(C)=C/C(=O)O)C(C)(C)CCC1 [retinoic acid]
- p62 protein expression normalized to actin: retinoic acid did not
